Assay results taken from US12185774B2, “Methods and devices for preventing viral transmission” (priority 2020, dated 2025).
At least one compound was matched to its structure with a doubt left.

Assays:
[1] = tested on: HUVEC cells; assay: Electric-field-induced elongation of endothelial cells (long:short axis ratio); assay type: cell-based
Description: HUVEC cells were seeded in a trough formed by two parallel (1 cm apart) strips of glass coverslip (No. 1, length of 22 mm) fixed to the base of the dish with silicone grease. Scratch lines were made perpendicular to the long axis of the chamber with a fine sterile needle and used as reference marks for directed cell migration. Cells were incubated for 24-48 hours (37° C., 5% CO2) before a roof coverslip was applied and sealed with silicone grease. The final dimensions of the chamber, through which current was passed, were 22×10×0.2 mm. […] Field strengths were measured directly at the beginning of, the end of and during each experiment. […]
A series of images was taken with an image analyser immediately before EF exposure and at 4, 8 and 24 hours of EF exposure. Cell orientation was quantified as an orientation index (Oi), which is defined as Oi=cos2 (a), where a is the angle formed by the long axis of a cell with a line drawn perpendicular to the field lines. […] The significance of this two-dimensional orientation distribution against randomness was calculated using Rayleigh's distribution. A long:short axis ratio was calculated for assessment of elongation.
HUVEC cells elongated dramatically in an EF. […] We quantified the elongation of the cells using a long:short axis ratio. […]

[2] = tested on: HUVEC cells; assay: Electric-field-induced reorientation of endothelial cells (orientation index Oi); assay type: cell-based; conditions: inhibitors 50 μM (latrunculin 50 nM), 1 hour before and during EF

O=c1cc(N2CCOCC2)oc2c(-c3ccccc3)cccc12 [LY294002]
long:short axis ratio / elongation response in EF-treated cells (in words) [1]: significantly decreased the long:short axis ratio | orientation response in EF (in words) [2]: significantly decreased the orientation response
